Measurements published in the supplement of paper PMC12067093, “Discovery and optimisation of a covalent ligand for TRIM25 and its application to targeted protein ubiquitination” (Chemical Science, 2025).
The list shows a part of the results.

Chains of the proteins cited; added tags and fusions are not shown. Lines headed by an entry give the natural chain unless they say otherwise; changes in a name come on top.
UniProt Q13330: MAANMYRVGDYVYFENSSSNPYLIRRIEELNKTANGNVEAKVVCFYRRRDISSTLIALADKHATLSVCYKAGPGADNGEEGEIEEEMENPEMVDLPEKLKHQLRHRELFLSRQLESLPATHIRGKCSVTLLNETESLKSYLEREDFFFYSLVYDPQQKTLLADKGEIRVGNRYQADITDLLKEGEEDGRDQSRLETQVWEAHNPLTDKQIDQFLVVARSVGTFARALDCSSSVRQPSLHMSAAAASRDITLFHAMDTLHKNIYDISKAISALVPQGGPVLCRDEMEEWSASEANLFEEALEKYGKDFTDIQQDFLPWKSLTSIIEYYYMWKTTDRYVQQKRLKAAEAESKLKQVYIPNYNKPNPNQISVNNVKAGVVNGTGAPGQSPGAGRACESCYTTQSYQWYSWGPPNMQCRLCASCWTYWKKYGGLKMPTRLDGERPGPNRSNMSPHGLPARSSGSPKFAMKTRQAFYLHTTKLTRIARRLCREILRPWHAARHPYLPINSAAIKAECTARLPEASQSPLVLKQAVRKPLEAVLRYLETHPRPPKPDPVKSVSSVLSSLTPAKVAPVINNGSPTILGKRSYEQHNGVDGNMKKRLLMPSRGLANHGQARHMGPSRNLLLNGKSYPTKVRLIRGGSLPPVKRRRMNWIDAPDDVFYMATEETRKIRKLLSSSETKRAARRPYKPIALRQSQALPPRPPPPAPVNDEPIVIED
UniProt Q2M296: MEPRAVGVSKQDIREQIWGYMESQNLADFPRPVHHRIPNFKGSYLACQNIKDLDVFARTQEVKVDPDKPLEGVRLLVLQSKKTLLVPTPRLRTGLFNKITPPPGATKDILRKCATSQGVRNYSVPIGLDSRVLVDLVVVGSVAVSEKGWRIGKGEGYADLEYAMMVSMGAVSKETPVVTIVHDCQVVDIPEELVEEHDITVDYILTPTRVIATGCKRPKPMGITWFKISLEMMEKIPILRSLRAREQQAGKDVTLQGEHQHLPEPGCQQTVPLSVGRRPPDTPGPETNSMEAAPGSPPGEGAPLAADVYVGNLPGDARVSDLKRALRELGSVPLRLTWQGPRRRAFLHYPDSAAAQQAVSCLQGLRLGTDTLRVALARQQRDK
UniProt Q9Y3D2: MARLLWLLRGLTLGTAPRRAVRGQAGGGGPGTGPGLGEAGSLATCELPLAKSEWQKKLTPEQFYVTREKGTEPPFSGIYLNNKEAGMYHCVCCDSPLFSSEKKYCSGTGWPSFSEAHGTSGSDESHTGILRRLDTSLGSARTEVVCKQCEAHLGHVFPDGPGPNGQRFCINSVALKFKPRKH
UniProt Q15390: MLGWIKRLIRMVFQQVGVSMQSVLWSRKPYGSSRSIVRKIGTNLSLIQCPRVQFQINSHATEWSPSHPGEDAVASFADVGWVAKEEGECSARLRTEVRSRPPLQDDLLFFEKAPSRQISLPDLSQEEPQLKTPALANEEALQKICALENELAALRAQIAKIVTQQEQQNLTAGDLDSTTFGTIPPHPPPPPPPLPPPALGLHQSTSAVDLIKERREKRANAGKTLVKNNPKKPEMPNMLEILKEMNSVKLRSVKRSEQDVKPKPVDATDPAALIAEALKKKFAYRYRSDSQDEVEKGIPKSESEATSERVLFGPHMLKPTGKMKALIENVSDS
UniProt P11586, whole entry, looked up: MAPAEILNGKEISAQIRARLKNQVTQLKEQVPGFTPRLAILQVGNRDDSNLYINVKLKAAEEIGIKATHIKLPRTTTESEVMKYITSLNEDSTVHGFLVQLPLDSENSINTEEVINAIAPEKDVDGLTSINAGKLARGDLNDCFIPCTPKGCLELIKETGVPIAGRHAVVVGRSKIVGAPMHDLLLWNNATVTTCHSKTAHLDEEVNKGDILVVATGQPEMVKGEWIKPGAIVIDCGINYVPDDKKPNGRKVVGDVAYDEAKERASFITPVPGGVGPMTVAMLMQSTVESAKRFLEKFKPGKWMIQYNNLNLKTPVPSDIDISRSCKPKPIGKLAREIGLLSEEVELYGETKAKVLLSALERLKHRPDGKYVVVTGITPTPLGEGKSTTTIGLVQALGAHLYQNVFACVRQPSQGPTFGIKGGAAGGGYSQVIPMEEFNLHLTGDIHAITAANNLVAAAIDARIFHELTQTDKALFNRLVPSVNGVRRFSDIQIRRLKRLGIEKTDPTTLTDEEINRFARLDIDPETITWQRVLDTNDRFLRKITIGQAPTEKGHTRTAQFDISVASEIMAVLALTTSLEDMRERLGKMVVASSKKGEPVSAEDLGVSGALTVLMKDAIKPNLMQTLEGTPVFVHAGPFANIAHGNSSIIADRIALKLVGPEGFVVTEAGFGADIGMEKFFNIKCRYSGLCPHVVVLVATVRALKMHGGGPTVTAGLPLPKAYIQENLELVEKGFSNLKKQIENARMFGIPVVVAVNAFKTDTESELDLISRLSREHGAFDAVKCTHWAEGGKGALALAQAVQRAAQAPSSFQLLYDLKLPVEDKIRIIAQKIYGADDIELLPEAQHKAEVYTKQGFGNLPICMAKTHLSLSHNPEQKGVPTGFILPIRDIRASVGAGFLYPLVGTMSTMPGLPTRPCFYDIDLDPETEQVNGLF
UniProt P52701: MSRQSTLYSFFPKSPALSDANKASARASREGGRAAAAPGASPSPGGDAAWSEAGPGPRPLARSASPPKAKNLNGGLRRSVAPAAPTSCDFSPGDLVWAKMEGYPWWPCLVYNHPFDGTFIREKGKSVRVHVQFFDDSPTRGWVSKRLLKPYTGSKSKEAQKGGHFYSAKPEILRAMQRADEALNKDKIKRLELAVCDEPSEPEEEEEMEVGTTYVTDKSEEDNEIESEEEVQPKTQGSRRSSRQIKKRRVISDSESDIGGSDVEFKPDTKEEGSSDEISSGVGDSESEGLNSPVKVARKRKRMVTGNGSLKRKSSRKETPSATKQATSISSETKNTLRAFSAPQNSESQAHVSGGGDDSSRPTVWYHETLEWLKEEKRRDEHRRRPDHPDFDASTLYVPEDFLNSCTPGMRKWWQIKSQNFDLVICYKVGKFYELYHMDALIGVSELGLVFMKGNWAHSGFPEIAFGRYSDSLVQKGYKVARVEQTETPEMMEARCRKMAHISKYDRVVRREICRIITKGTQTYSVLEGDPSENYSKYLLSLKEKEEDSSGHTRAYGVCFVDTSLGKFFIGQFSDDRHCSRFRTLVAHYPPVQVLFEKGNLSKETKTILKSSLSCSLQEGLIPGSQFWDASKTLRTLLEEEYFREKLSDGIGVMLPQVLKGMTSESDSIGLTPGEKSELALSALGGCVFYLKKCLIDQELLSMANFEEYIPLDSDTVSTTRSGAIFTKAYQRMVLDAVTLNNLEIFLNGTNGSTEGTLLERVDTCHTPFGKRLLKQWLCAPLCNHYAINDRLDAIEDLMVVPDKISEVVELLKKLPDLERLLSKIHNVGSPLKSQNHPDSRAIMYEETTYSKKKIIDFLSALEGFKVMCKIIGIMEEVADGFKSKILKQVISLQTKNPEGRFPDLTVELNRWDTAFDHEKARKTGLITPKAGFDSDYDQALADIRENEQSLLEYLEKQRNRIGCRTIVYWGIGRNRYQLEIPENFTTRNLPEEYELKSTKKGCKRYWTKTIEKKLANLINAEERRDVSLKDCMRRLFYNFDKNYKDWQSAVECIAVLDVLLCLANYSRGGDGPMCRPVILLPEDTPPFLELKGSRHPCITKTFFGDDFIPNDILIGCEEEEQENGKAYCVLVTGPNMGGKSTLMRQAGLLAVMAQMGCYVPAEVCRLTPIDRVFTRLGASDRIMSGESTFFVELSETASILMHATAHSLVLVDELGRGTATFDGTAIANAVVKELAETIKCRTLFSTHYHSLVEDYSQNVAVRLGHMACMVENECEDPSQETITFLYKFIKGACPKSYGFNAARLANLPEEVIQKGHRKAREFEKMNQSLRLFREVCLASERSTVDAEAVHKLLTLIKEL
UniProt Q8NCE2: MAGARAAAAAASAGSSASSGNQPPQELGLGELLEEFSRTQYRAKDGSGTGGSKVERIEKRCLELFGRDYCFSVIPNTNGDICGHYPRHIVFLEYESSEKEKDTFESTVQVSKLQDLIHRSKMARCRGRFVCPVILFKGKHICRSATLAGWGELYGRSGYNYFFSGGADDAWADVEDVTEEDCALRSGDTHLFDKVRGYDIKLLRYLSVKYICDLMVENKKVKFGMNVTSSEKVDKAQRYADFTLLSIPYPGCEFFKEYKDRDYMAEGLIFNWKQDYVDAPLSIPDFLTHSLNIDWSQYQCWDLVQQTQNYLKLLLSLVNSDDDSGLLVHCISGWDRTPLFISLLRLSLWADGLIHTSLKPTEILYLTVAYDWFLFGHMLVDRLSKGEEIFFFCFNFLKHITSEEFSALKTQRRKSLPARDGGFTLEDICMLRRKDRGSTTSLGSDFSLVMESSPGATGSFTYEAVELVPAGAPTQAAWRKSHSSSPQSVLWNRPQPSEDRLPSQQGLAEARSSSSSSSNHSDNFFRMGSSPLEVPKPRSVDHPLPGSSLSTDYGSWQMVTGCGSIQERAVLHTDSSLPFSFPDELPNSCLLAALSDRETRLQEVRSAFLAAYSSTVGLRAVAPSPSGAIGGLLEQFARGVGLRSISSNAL
UniProt Q99707: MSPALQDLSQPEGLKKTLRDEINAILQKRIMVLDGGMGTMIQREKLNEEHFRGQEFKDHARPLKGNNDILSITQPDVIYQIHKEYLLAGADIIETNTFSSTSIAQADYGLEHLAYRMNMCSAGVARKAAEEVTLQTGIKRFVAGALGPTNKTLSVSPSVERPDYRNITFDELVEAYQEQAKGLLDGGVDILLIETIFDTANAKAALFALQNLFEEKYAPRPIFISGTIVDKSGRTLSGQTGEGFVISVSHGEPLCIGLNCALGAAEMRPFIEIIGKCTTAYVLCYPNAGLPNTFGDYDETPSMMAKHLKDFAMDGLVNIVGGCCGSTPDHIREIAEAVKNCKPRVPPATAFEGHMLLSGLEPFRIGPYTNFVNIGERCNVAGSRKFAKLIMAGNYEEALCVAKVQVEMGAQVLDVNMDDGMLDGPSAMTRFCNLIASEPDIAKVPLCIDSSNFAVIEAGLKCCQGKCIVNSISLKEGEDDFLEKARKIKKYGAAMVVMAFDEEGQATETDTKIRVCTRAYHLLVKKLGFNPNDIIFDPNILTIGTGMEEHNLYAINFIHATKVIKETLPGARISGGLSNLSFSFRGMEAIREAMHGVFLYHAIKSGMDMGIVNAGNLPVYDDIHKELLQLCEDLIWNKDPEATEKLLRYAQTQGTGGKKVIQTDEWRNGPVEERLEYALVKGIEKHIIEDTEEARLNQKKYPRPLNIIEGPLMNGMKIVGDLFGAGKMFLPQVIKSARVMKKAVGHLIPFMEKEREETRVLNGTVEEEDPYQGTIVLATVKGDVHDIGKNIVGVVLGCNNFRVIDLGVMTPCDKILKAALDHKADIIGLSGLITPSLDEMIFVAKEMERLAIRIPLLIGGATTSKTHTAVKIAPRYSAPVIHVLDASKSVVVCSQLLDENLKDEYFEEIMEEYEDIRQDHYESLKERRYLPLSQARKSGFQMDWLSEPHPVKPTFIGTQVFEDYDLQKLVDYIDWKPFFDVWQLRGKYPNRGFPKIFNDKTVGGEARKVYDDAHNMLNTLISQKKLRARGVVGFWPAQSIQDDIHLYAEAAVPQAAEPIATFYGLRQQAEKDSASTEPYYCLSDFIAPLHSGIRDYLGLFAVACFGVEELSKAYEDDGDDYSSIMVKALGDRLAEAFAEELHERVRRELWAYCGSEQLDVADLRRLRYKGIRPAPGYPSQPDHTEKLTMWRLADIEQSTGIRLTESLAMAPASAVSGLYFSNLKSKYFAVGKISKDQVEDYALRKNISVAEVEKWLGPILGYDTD
UniProt Q13496: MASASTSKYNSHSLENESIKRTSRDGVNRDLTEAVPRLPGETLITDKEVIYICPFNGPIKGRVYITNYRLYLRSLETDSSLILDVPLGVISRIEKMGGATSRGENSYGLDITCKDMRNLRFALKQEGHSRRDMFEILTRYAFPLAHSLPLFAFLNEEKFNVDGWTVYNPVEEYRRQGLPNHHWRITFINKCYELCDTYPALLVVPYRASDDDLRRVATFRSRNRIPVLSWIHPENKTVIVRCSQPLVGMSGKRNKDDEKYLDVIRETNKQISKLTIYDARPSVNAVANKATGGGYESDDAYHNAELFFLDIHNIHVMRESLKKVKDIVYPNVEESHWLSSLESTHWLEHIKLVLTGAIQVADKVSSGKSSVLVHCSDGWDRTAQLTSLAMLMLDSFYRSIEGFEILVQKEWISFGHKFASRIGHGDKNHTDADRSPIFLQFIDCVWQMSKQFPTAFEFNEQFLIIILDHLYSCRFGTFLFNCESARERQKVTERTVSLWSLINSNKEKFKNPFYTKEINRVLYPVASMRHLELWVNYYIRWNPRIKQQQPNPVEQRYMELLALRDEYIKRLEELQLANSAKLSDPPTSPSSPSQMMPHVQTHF

Compound: CC1Cc2ccccc2N1C(=O)C1CCCN(C1)C(=O)CCl (mixture of isomers) [TRIM25 ligand 11 (diastereomer mixture)]
Assay: probe-labelled cysteine peptide fold change vs DMSO (competition) (log2 fold change); higher = less target engagement (more negative = stronger competition)
Details: THP-1, incubation time: 4 h
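Note: competitive chemoproteomic profiling in live THP-1 cells with an iodoacetamide desthiobiotin (IA-DTB) probe, comparing probe-labelled peptide intensities in compound-treated cells against DMSO-treated controls.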

Row | Target | probe-labelled cysteine peptide fold change (10 µM) | probe-labelled cysteine peptide fold change (50 µM)
1 | MTA1_Q13330_281_AISALVPQGGPVLCR (UniProt Q13330) | 0.116 | 0.139
2 | MRRF_Q96E11_154_SPQLILVNMASFPECTAAAIK (UniProt Q96E11) | -0.379 | -0.279
3 | MTHFSD_Q2M296_267_DVTLQGEHQHLPEPGCQQTVPLSVGR (UniProt Q2M296) | -0.204 | -0.261
4 | MSTO1_Q9BUK6_178_SICMIQK (UniProt Q9BUK6) | -0.0566 | 0.107
5 | MTRR_Q9UBK8_64_AIAEEICEQAVVHGFSADLHCISESDKYDLK (UniProt Q9UBK8) | -0.0166 | -0.0337
6 | MSRB2_Q9Y3D2_105_KYCSGTGWPSFSEAHGTSGSDESHTGILR (UniProt Q9Y3D2) | 0.0554 | -0.192
7 | MTG2_Q9H4K7_175_VVADLSCVGDEYIAALGGAGGK (UniProt Q9H4K7) | 0.0379 | -0.147
8 | MTFR1_Q15390_89_EEGECSAR (UniProt Q15390) | -0.0644 | 0.0224
9 | MTA2_O94776_261_AMSTLVPQGGPVLCR (UniProt O94776) | 0.144 | -0.0822
10 | MTHFD1_P11586_691_YSGLCPHVVVLVATVR (UniProt P11586) | -0.188 | 0.0425
11 | MRPS6_P82932_105_ECEGIVPVPLAEK (UniProt P82932) | 0.00533 | -0.147
12 | MSRB2_Q9Y3D2_169_FCINSVALK (UniProt Q9Y3D2) | -0.0842 | 0.0432
13 | MYBPH_Q13203_437_ALSEQGVCTLEIR (UniProt Q13203) | 0.192 | 0.136
14 | MTMR9_Q96QG7_285_LVEACNDQTHNMDR (UniProt Q96QG7) | 0.103 | 0.195
15 | MSH6_P52701_579_FFIGQFSDDRHCSR (UniProt P52701) | -0.129 | 0.033
16 | MRPS11_P82912_186_LSAMHGLIMGGLEVISITDNTPIPHNGCRPR (UniProt P82912) | 0.338 | 0.321
17 | MVD_P53602_12_PLAAVTCTAPVNIAVIK (UniProt P53602) | -0.0804 | -0.15
18 | MYBL2_P10244_196_DCKPPVYLLLELEDK (UniProt P10244) | 0.118 | -0.0777
19 | MTMR14_Q8NCE2_252_YADFTLLSIPYPGCEFFK (UniProt Q8NCE2) | 0.134 | 0.167

As entered above:
probe-labelled cysteine peptide fold change (10 µM), MTA1_Q13330_281_AISALVPQGGPVLCR (UniProt Q13330) reads 0.116
probe-labelled cysteine peptide fold change (10 µM), MTMR14_Q8NCE2_252_YADFTLLSIPYPGCEFFK (UniProt Q8NCE2) reads 0.134

The list continues:

Row | Target | probe-labelled cysteine peptide fold change (10 µM) | probe-labelled cysteine peptide fold change (50 µM)
20 | MTR_Q99707_1081_DSASTEPYYCLSDFIAPLHSGIR (UniProt Q99707) | 0.0326 | 0.0181
21 | MVP_Q14764_515_RALCLLLGPDFFTDVITIETADHAR (UniProt Q14764) | -0.253 | -0.119
22 | MRPS12_O15235_64_GVVLCTFTR (UniProt O15235) | -0.149 | 0.0516
23 | MTMR3_Q13615_151_EQHGDLCRPGEHVTSR (UniProt Q13615) | 0.123 | 0.0462
24 | MTM1_Q13496_53_EVIYICPFNGPIK (UniProt Q13496) | 0.0653 | -0.0347
25 | MSH6_P52701_615_SSLSCSLQEGLIPGSQFWDASK (UniProt P52701) | -0.13 | -0.2
26 | MTHFD1_P11586_236_GEWIKPGAIVIDCGINYVPDDKKPNGR (UniProt P11586) | -0.357 | -0.226
27 | MRPS9_P82933_330_HDVTCTVSGGGR (UniProt P82933) | 0.0395 | 0.132
28 | MSH2_P43246_404_QAANLQDCYR (UniProt P43246) | -0.0257 | 0.0523
29 | MRPS30_Q9NP92_393_KNICWGTQSK (UniProt Q9NP92) | -0.218 | -0.27
30 | MRPL53_Q96EL3_63_HDGSEPCVDVLFGDGHR (UniProt Q96EL3) | 0.0429 | 0.184
31 | MYBBP1A_Q9BQG0_1031_HQACLLLQK (UniProt Q9BQG0) | -0.012 | 0.0317
32 | MTHFD2_P13995_145_ICNAVSPDK (UniProt P13995) | -0.072 | 0.0639
33 | MRTO4_Q9UKD2_176_GVVTLLSDYEVCK (UniProt Q9UKD2) | 0.0418 | -0.0161
34 | MRPS28_Q9Y2Q9_124_FHCVCR (UniProt Q9Y2Q9) | 0.00221 | 0.0165
35 | MTM1_Q13496_242_CSQPLVGMSGK (UniProt Q13496) | -0.0613 | 0.0204
36 | MTERF3_Q96E29_399_LVSIPDEIFCEEIAK (UniProt Q96E29) | 0.0872 | 0.0199
37 | MTPAP_Q9NVV4_299_ILSVLGECLDHFGPGCVGVQK (UniProt Q9NVV4) | -0.0551 | 0.0135
38 | MYCBP2_O75592_3263_QAHPGCGR (UniProt O75592) | 0.168 | 0.105
